From paper PMC12035895
No constants are given. Whether binding was seen depends on the method and setting. Binding seen in cells or lysates may run through a third protein. Some binding calls cover weakened binding; strength is not graded here.

The chains behind the UniProt entries cited, without tags or fusion partners. Residues count along the entry.
UniProt P08721, residues 17-317: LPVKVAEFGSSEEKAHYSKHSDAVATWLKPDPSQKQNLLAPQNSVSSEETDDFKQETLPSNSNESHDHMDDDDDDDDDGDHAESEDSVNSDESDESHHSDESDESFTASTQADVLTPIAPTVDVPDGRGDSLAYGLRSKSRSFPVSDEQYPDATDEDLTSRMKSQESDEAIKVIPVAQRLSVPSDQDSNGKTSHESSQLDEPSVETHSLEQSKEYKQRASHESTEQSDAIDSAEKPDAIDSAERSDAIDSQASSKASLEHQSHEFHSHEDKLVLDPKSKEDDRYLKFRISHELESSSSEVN

Assays:
[1] = biological target: T1, integrin beta 3 (ITGβ3), overexpressed by adenovirus in VSMCs (UniProt Q8R2H2); assay: co-IP; lysates of adenovirus-transfected VSMCs incubated with SPP1, ITGβ3 or IgG beads at 4°C overnight; washed three times with lysis solution; western blot
T1 sequence: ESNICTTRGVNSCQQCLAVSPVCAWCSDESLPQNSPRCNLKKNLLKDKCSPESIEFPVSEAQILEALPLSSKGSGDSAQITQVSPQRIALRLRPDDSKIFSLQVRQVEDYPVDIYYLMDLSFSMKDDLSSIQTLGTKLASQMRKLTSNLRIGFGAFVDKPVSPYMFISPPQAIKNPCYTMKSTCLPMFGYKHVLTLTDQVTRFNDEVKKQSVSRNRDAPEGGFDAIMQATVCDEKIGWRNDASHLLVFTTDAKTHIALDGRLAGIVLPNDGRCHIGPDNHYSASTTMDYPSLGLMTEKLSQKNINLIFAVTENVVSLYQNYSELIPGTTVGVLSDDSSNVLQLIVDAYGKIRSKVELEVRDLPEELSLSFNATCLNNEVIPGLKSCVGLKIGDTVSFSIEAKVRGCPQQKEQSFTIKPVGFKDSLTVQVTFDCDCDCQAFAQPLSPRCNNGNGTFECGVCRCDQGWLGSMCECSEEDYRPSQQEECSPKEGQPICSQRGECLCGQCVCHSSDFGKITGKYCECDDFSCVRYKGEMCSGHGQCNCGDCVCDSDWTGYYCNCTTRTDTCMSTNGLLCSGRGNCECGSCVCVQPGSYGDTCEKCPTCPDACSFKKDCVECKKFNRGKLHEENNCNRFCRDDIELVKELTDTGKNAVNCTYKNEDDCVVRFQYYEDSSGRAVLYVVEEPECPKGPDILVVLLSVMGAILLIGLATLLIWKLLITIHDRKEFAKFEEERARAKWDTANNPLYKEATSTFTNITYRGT

[2] = biological target: T2, full-length ITGβ3, expressed in 293T cells (UniProt Q8R2H2); assay: co-IP; lysates of 293T cells cotransfected with SPP1 and full-length or truncated ITGβ3 plasmids; precipitated with an anti-ITGβ3 antibody; western blot
T2 sequence: T1 sequence

[3] = biological target: secreted phosphoprotein 1 (SPP1), overexpressed by adenovirus in VSMCs (UniProt P08721); assay: co-IP; lysates of adenovirus-transfected VSMCs incubated with SPP1, ITGβ3 or IgG beads at 4°C overnight; washed three times with lysis solution; western blot

How did the binding [1] turn out when “secreted phosphoprotein 1 (SPP1), overexpressed by adenovirus in VSMCs (from UniProt P08721 17-317)” was run?
The binding was “binds”.

For “SPP1, expressed in 293T cells (from UniProt P08721 17-317)”, which binding [2] is on record?
The binding was “binds”.

B1: integrin beta 3 (ITGβ3), overexpressed by adenovirus in VSMCs (receptor, UniProt Q8R2H2 26-787)
chain: T1 sequence
How did the binding [3] turn out when B1 was run?
Its binding is “binds”.
